Results are given in words; binding and its absence hold for the method and conditions named. Some binding calls cover weakened binding; strength is not graded here.
Legend:
[1] = target: human CD16a (hCD16a), biotinylated recombinant extracellular domain used in the crude extract HTRF screen (CD16aV and/or CD16aF) (human) (UniProt P08637); assay: crude extract HTRF on recombinant CD16a target
[2] = target: human CD16a (hCD16a), biotinylated recombinant extracellular domain used in the crude extract HTRF screen (CD16aV and/or CD16aF) (human) (UniProt P08637); assay: crude cell extract HTRF, 4 nM biotinylated target, anti-strep-Tb donor and anti-Flag-D2 acceptor

Protein sequences, listed by entry. Tags and fused reporters are not part of them. Residues count along the entry.
UniProt P08637, residues 17-208: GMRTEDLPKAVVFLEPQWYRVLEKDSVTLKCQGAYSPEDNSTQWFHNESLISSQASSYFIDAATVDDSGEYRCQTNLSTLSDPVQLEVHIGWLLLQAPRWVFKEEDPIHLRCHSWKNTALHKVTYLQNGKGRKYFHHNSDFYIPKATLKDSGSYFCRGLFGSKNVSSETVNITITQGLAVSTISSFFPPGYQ

B1: DARPin #5 (SEQ ID NO: 5), clone as screened in crude extract HTRF (designed binder)
chain: DLGAKLLRAAKKGQDDEVRELLKAGADVNAKDELGFTPLHVAAEEGHLEIVEVLLKAGADVNAKDSWGATPLHVAAWVGHLEIVEVLLKAGADVNAQDQEGQTPADLAAEAGHEDIAEVLQKAA
binding [1]: binds | binding [2]: binds

B2: DARPin #1 (SEQ ID NO: 1), clone as screened in crude extract HTRF (designed binder)
chain: DLGKKLLQAARAGQLDEVRELLKAGADVNAKDWSGFTPLHIAAVQGHLEIVEVLLKAGADVNAKDHSGWTPLHVAAFSGHLEIVEVLLKAGADVNAKDATGQTPLHLAARTGHLEIVEVLLKAGADVNAQDKSGKTPADLAARAGHQDIAEVLQKAA
binding [1]: binds | binding [2]: binds

B3: DARPin #2 (SEQ ID NO: 2), clone as screened in crude extract HTRF (designed binder)
chain: DLGQKLLRAAKKGQDDEVRELLKAGADVNAKDEQGWTPLHIAAWKGHLEIVEVLLKAGADVNAKDVFDWTPLHVAAHFGHLEIVEVLLKAGADVNAQDRAGETPADLAAQAGHEDIAEVLQKAA
binding [1]: binds | binding [2]: binds

B4: DARPin #6 (SEQ ID NO: 6), clone as screened in crude extract HTRF (designed binder)
chain: DLGKKLLEAAEEGQDDEVRELLKAGADVNAKDEWGSTPLHIAAWVGHLEIVEVLLKAGADVNAKDSLGATPLHLAAEAGHLEIVEVLLKAGADVNAQDLKGKTPADLAALEGHEDIAEVLQKAA
binding [1]: binds | binding [2]: binds

B5: DARPin #3 (SEQ ID NO: 3), clone as screened in crude extract HTRF (designed binder)
chain: DLGKKLLQAARAGQLDEVRELLKAGADVNAKDEQGRTPLHIAAASGHLEIVEVLLKAGADVNAKDWFGITPLHIAAWWGHLEIVEVLLKAGADVNAKDQEGRTPLHIAAAIGHLEIVEVLLKAGADVNAQDKSGKTPADLAARAGHQDIAEVLQKAA
binding [1]: binds | binding [2]: binds

B6: DARPin #4 (SEQ ID NO: 4), clone as screened in crude extract HTRF (designed binder)
chain: DLGEKLLLAAALGQDDEVRELLKAGADVNAKDVQGSTPLHLAAVEGHLEIVEVLLKAGADVNAKDQWGQTPLHVAAIWGHLEIVEVLLKAGADVNAQDELGKTPADLVALQGHEDIAEVLQKAA
binding [1]: binds | binding [2]: binds
